Measured values as given in patent US20120045523A1, “COMBINATION OF A TLR3 LIGAND AND A CHEMOTHERAPY AGENT WHICH ACTS ON THE INTRINSIC "APOPTOSIS" PATHWAY IN THE TREATMENT OF CANCER” (UNIVERSITE CLAUDE BERNARD LYON I, priority 2008, published 2012).
For at least one compound, name, drawing or mass did not settle the structure.

Test system: NCI-H1703 cells
Assay: Annexin V-FITC/propidium iodide labeling, flow cytometry (apoptosis)
Format: cell-based, human
Settings: wortmannin 0.1-1.0 μM + poly(I:C) 100 μg/ml, 24 h, FIG. 5B
Source text: The duplexes of control small interfering RNA (siRNA; Dharmacon) and siRNA specific for caspase 8 and caspase 9 (Qiagen) used are as follows: 1) control: ON-TARGETplus siCONTROL Non-Targeting siRNA #3; caspase 8 sense 5′-r(GAG UCU GUG CCC AAA UCA A)dTdT-3′, caspase 8 antisense 5′-r(UUG AUU UGG GCA CAG ACU C)dTdT-3′; caspase 9 sense 5′-r(GAG UGG CUC CUG GUA CGU U)dTdT-3′, caspase 9 antisense 5′-r(AAC GUA CCA GGA GCC ACU C)dTdT-3′. The siRNAs were transfected by the HiPerFect (Qiagen) transfection reagent according to the manufacturer's recommendations. Briefly, NCI-H1703 or NCI-H292 cells are cultured in 100 mm dishes, dislodged by trypsin, placed in 24-well plates at a concentration of 50,000 cells in 400 μl of medium per well and incubated at 37° C. during preparation of the mixes. […] For these conditions, the effectiveness of caspase 8 and caspase 9 siRNAs in decreasing the level of expression of caspase 8 and caspase 9 proteins, respectively, were measured by western blot, and reaches roughly 85% for caspase 8 siRNA and 75% for caspase 9 siRNA.
In relation to the mechanism of reduction of the number of living cells, the percentage of cells labeled with annexin V after culture after treatment with poly(I:C) was determined by flow cytometry. […] The percentage of annexin V-positive cells is measured by flow cytometry. […]

COC[C@H]1OC(=O)c2coc3c2[C@@]1(C)C1=C(C3=O)[C@@H]2CCC(=O)[C@@]2(C)C[C@H]1OC(C)=O [wortmannin]
pro-apoptotic activity of the combination compared with each compound separately: increases, in a synergistic manner, pro-apoptotic activity
